Source: publication doi:10.1101/2021.04.12.439405 (bioRxiv, 2021)
No constants are given. Whether binding was seen depends on the method and setting. Some entries that bind do so weakly or less than the wild type. Tags and fused reporters may be left off the sequences shown.

Target: T1, MukB-His (wild type MukB) (E. coli, UniProt P22523 1-1486)
T1 sequence (looked up): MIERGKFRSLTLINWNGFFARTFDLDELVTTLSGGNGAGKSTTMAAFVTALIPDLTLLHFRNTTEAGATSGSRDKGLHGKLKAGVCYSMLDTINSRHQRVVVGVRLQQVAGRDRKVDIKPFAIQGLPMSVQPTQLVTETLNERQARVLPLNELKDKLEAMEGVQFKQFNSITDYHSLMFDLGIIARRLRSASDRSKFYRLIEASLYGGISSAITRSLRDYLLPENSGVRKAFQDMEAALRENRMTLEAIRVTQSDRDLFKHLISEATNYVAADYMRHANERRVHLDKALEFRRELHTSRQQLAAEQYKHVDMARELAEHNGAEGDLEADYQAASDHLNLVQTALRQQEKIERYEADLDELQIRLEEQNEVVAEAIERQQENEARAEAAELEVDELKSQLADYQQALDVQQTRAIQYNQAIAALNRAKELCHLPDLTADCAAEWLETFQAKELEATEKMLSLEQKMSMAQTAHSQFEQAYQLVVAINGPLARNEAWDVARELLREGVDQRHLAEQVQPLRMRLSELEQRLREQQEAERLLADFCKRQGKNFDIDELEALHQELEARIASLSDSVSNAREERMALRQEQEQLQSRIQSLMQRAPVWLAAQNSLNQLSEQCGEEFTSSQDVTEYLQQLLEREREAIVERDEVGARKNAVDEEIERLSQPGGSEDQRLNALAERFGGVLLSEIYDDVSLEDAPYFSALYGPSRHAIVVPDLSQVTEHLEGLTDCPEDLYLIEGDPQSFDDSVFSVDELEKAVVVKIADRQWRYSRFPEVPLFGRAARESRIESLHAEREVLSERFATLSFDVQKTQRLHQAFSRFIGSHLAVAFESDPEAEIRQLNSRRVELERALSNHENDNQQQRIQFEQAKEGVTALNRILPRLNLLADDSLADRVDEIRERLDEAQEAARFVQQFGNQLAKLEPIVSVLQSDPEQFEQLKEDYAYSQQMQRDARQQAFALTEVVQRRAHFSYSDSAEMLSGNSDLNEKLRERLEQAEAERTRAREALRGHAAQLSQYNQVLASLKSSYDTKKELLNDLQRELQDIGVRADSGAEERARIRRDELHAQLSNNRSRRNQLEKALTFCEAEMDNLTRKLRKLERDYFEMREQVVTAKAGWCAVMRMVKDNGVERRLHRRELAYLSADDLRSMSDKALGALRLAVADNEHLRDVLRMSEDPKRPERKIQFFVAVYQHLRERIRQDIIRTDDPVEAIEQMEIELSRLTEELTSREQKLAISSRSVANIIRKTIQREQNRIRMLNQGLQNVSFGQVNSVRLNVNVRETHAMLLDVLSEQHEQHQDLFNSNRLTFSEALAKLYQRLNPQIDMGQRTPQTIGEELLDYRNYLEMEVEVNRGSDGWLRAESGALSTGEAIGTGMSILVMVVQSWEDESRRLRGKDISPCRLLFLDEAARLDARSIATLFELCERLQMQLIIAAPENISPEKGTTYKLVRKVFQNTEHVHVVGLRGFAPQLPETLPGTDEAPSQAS
Test: co-purification

B1: His-MukF (natural protein, E. coli, UniProt P60293 1-440, looked up)
chain: MSEFSQTVPELVAWARKNDFSISLPVDRLSFLLAVATLNGERLDGEMSEGELVDAFRHVSDAFEQTSETIGVRANNAINDMVRQRLLNRFTSEQAEGNAIYRLTPLGIGITDYYIRQREFSTLRLSMQLSIVAGELKRAADAAEEGGDEFHWHRNVYAPLKYSVAEIFDSIDLTQRLMDEQQQQVKDDIAQLLNKDWRAAISSCELLLSETSGTLRELQDTLEAAGDKLQANLLRIQDATMTHDDLHFVDRLVFDLQSKLDRIISWGQQSIDLWIGYDRHVHKFIRTAIDMDKNRVFAQRLRQSVQTYFDEPWALTYANADRLLDMRDEEMALRDEEVTGELPEDLEYEEFNEIREQLAAIIEEQLAVYKTRQVPLDLGLVVREYLSQYPRARHFDVARIVIDQAVRLGVAQADFTGLPAKWQPINDYGAKVQAHVIDKY
binding: binds
